# Measured values as given in the supplement of paper PMC10735217.
# Where “and” joins values, the source holds several entries; their conditions need not be identical. Equal entries are not always repeated. Structures can show the parent of a compound that is named as a salt. The list shows a part of the results. Repeats in this data set agree poorly, so a single value says little.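 In a drug-repurposing library screen, luminescence reads luciferase driven by eight TEAD-binding elements, stably integrated into human kidney-derived cells. Compounds scoring over five robust Z scores above the plate mean are called hits.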
# System: HEK293A TEAD-LUC reporter
# Experiment: TEAD-luciferase reporter activity (YAP activation), robust Z score vs plate; higher = stronger YAP/TEAD activation
# Conditions: 24 h
SMILES,TEAD-luciferase reporter activity (compound concentration: 200 nM),TEAD-luciferase reporter activity (compound concentration: 10 uM),TEAD-luciferase reporter activity (compound concentration: 2 uM)
S=C1NCCC(COc2ccccc2)O1 (stereo unspecified),inactive: -0.436,inactive: -0.31,
C[C@]1(C(=O)N2CCOCC2)CO[C@@H](c2nc(-c3ccncc3)c(-c3ccc(F)cc3)[nH]2)OC1,inactive: -1.15,inactive: 0.387,inactive: -1.33
COC(=O)Nc1cccc(-c2ccc(N3C[C@H](CNC(C)=O)OC3=O)cc2F)c1,inactive: -0.367,inactive: 4.05,inactive: 2.26
Cc1cc(NC(=O)NS(=O)(=O)c2ccccc2)ccc1C(C)C,inactive: -0.653,active: 5.85,inactive: -1.5
COc1cc2c(cc1C(=O)N1CCC(Cc3ccc(F)cc3)CC1)c(C(=O)C(=O)N(C)C)cn2C,inactive: 0.93,inactive: -0.938,inactive: -2.68
CNc1ncc2cc(-c3cc(NC(=O)NCCC(C)(C)C)c(F)cc3C)c(C)nc2n1,inactive: -1.12,inactive: 0.419,inactive: -2.33
CC(=O)N1CCCN(c2nc3ncccc3o2)CC1,inactive: -1.43,inactive: 2.44,
CC(C)(C)NCC(O)COc1ccccc1C(=O)CCc1ccccc1 (stereo unspecified),inactive: -0.666,inactive: 2.23,inactive: 0.549
CCS(=O)(=O)c1cccc(-c2cc(C(=O)NC3CCN(C)CC3)c(C)c3[nH]c4ncc(C)cc4c23)c1,inactive: -0.0816,inactive: -0.618,inactive: -1.8
Cc1ccc(O)c(C(=O)N[C@H]2CC[C@@H](NC(=O)c3cc(F)cnc3Oc3ccc(F)c(F)c3)CC2)c1,inactive: -1.4,active: 9.51,inactive: -0.69
Cc1ccc(Nc2nccs2)c(O)c1 [icodulinium hydrochloride],inactive: 0.155,inactive: -0.238,inactive: -0.103
CC1(CN2CCC(n3c(O)nc4ccccc43)CC2)OCc2ccccc2-n2cccc21 (stereo unspecified),inactive: -0.702,inactive: 1.53,
COc1ccc(CCNCC(O)COc2cc(C)ccc2Cl)cc1OC (stereo unspecified),inactive: -1.43,inactive: -0.747,inactive: -0.94
Cc1ncc(COP(=O)(O)O)c(C=O)c1O [Pyridoxal phosphate],inactive: -1.98,inactive: 0.612,inactive: -1.48
c1ccc(Oc2nncc3ccccc23)cc1,inactive: -0.163,inactive: 3.59,inactive: 1.82
CCOC(=O)[C@@H]1O[C@H]1C(=O)N[C@@H](CC(C)C)C(=O)N1CCN(Cc2ccc(OC)c(OC)c2OC)CC1,inactive: -2.17,inactive: -0.996,inactive: 0.426
O=C1NCC2(CCN(CCc3ccccc3)CC2)O1 [Fenspiride HCl],inactive: -0.455,inactive: -0.689,
O=C1NCC2(CCN(CCc3ccccc3)CC2)O1 [decasilate],,,inactive: -0.997
"NCCCC(O)(P(=O)(O)O)P(=O)(O)O [alendronate sodium iv, Teijin]",active: 9.52,inactive: 2.55,
NCCCC(O)(P(=O)(O)O)P(=O)(O)O [alendronate sodium iv],,,inactive: -0.449
CCN1CCCC(OC(=O)C(c2ccccc2)c2ccccc2)C1 (stereo unspecified),inactive: -2.26,inactive: 0.218,inactive: 0.56
Cc1cc2ncc(C(=O)NC3CCCCC3)cn2n1,inactive: -2.73,inactive: -0.0995,
CO/N=C1\C[C@@H](C(=O)NC[C@@H](O)c2ccccc2)N(C(=O)c2ccc(-c3ccccc3C)cc2)C1,inactive: 0.182,inactive: 1.61,inactive: -1.28
OC[C@H]1O[C@@H](n2cnc3c(N[C@H]4CCC[C@@H]4O)ncnc32)[C@@H](O)[C@@H]1O,inactive: -0.0963,active: 5.06,inactive: -1.2
COc1cc([C@@H]2c3cc4c(cc3[C@@H](O[C@@H]3O[C@@H]5CO[C@@H](c6cccs6)O[C@H]5[C@H](O)[C@H]3O)[C@H]3COC(=O)[C@H]23)OCO4)cc(OC)c1O [teniposide],inactive: -1.01,inactive: -0.599,inactive: -1.19
CCNC(=O)Nc1cccc([C@@H](Cc2ccncc2)c2ccc(OC)c(OC3CCCC3)c2)c1,inactive: -1.41,inactive: 0.995,inactive: -1.52 and inactive: -2.21
COc1ccc(OC(=O)N(CC(=O)O)Cc2ccc(OCCc3nc(-c4ccccc4)oc3C)cc2)cc1 [Muraglitazar],inactive: -1.03,inactive: 2.15,inactive: -0.949

# Quoted at random: two entries already listed
SMILES,TEAD-luciferase reporter activity (compound concentration: 200 nM),TEAD-luciferase reporter activity (compound concentration: 10 uM),TEAD-luciferase reporter activity (compound concentration: 2 uM)
O=C1NCC2(CCN(CCc3ccccc3)CC2)O1 [Fenspiride HCl],inactive: -0.455,inactive: -0.689,
COc1cc([C@@H]2c3cc4c(cc3[C@@H](O[C@@H]3O[C@@H]5CO[C@@H](c6cccs6)O[C@H]5[C@H](O)[C@H]3O)[C@H]3COC(=O)[C@H]23)OCO4)cc(OC)c1O [teniposide],inactive: -1.01,inactive: -0.599,inactive: -1.19
